Results of single-concentration screens

Results are given as percent effect. How 0% and 100% were set is not recorded. Most values in the screen are low, and negative values occur. The compounds are a random part of those screened.

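Phenotypic screen: M. tuberculosis growth, cholesterol and DPPC medium, 4 days; the read-out is not stated. Concentration: 500 µM. Direction is inferred from retests: higher values go with more growth inhibition. Of about 18,000 compounds tested this way, about 900 (5%) reached 50% or more in at least one test.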

structure,Percent Effect
CC1(C)CN(C(=O)c2cnc3ccccn23)CCS1,-12.97
CN(Cc1nnc(N)o1)C(=O)c1ccccc1,11.76
Cc1ccccc1C(=O)N1CC(=O)Nc2ccccc21,12.54
NCc1ccc2c(c1)C(=O)NCC2,3.297
c1ccc(OCC2CCNC2)cc1 (stereo unspecified),16.71
CCCn1cc(C(=O)NCC(F)(F)F)c(C)n1,7.947
Cc1ccc(F)cc1C(=O)NCC1CCNCC1,-2.119
CNC(=O)CN1CCCC1COc1ccccc1 (stereo unspecified),19.45
COc1ncccc1C(=O)NCCN1CCC(C)CC1,4.873
CCN(CCn1cccn1)C(=O)c1cc(C)nc(N)n1,-5.088
CO[C@H]1CNC[C@H]1OC,-1.659
CNC(=O)CCN1CCC(OCC2CCCCO2)CC1 (stereo unspecified),-15.92
Cc1cc(C(=O)NCCCN(C)C)c2ccccc2n1,0.6307
O=S1(=O)CC(C2CNC2)C1,6.3
Cn1ccc(CNc2ccc(OC(F)F)cn2)c1,33.21
CCC(O)(CC)CNc1nnnn1-c1ccc(C)cc1,16.54
CCOCCCNC(=O)CC#N,1.341
COC(=O)NCC(=O)N(C)c1ccc2ccccc2c1,31.68
CC1CCCN(C(=O)CN2CCC(O)CC2)C1 (stereo unspecified),0.3284
Cc1nc(COc2ccc(C(=O)OCC#N)cc2)no1,76.75
CCN(Cc1ccc(Cl)s1)C(=O)COC,13.05
CCC(C)NCC(=O)OC (stereo unspecified),-8.603
Cc1cc(C(=O)NCC2CCCCC(=O)N2)n(C)n1 (stereo unspecified),-11.14
O=C(NCCO)Nc1nc2ccccc2s1,-4.006
CN(CC(=O)N1CCCC(C(F)(F)F)C1)S(C)(=O)=O (stereo unspecified),-13.78
CC1(C)CN(CC2CCCCO2)CCO1 (stereo unspecified),0.65
CC1Cc2ccccc2N(C(=O)c2csnn2)C1 (stereo unspecified),35.12
Cc1noc(C)c1CN1CCCC(C(N)=O)C1 (stereo unspecified),0.4698
Cc1cc(Cn2c(=O)[nH]c3ccccc3c2=O)no1,-11.35
CN(C)S(=O)(=O)CCCN1C[C@H](C2CC2)[C@@H](N)C1,7.313
N#Cc1ccc(OCC(O)CN2CCSCC2)cc1 (stereo unspecified),-10.29
Cc1cc(C(=O)NCC2CCCCO2)cc(=O)[nH]1 (stereo unspecified),-1.276
COc1ncccc1-c1csc(NCCSC)n1,52.03
COC(=O)c1csc(NC(=O)c2cnn(C)c2)c1,-1.704
CC(C)N(C)S(=O)(=O)N1CCc2sccc2C1C (stereo unspecified),84.37
CCC[C@H]1CN(CCCO)C[C@@H]1NC(=O)c1cnn[nH]1,-1.593
CCN(CC)C(=O)C1CCNCC1,1.201
CC(C)(C#N)C(=O)Nc1ncccc1Cl,1.059
COc1cccc(OC)c1O,15.65
COCC(=O)N1CCC2(CCCNC2)C1 (stereo unspecified),-10.17
CNC(=O)C1CCCN1C(=O)c1ccccc1O (stereo unspecified),11.34
O=C(NCCCn1cccn1)N1CCSCC1,11.99
CNC(=O)NC1CCC2(CC1)OCCO2,-6.49
Cc1ccc(CCC(C)NC(CO)CO)cc1 (stereo unspecified),25.91
OCCCSc1ccncc1NCc1cccc(O)c1,8.735
Cc1cccc(C)c1CN(C)S(C)(=O)=O,1.156
Cc1ccc(OCC(C)N)cc1 (stereo unspecified),-3.11
COc1ccc(NCc2nc(=O)n(C)[nH]2)cc1,31.73
CN(C)c1cc(CN)ccn1,5.922
NCCNS(=O)(=O)c1ccc(Br)c(F)c1,29.96
O=C(c1c[nH]c(=O)c2ccccc12)N1CCOCC1,6.706
NCc1c(C(N)=O)oc2ccccc12,40.66
Cc1cc(NC(=O)NCc2ccoc2)n(C)n1,-6.654
O=C(NCc1cccnc1)N1CCc2ccccc2C1,11.39
Cn1c(SCC(=O)NC(N)=O)nnc1C(F)(F)F,3.502
NC(=O)CC1CCN(C(=O)c2cncc(Br)c2)CC1,-1.799
COc1cc(CN(C)CCN(C)C)cc(OC)c1O,24.5
CC(C(=O)Nc1ccc2ccccc2n1)S(C)(=O)=O (stereo unspecified),4.294
COC(=O)c1ccc(NC(C)=O)cc1,27.51
CCCn1cc(CNc2nc(C3CC3)no2)cn1,80.48
O=C(CCN1C(=O)CCC1=O)OCCc1cccs1,14.23
COc1cc(CCN)cc(OC)c1O,10.85
COC(=O)NC(C)C(=O)NCC1(Cn2ccnc2)CC1 (stereo unspecified),5.783
CCn1nc(C)cc1C(=O)N(C)S(=O)(=O)C(C)C,-6.594
COc1ccc(NC(=O)NCc2cc[nH]n2)cc1,-38.2
CCN(CC)CC(=O)Nc1ccc(C(=O)N(C)C)cc1,-0.8821
COCCNC1CCCC1,7.188
Cc1cccc(CCO)c1,-9.599
CC(=O)N1CCC(CN2CCCCC2)C1 (stereo unspecified),-22.84
CC(C(=O)N1CCCC1)N1CCNCC1 (stereo unspecified),1.306
C=C(Br)CN1CCN(C(=O)CN2C(=O)CCC2=O)CC1,-9.676
O=S(=O)(NCC(O)c1ccsc1)c1c[nH]cn1 (stereo unspecified),-1.856
CC1(C)CS(=O)(=O)CCN1,5.184
COc1ccc(-c2ccnc(N)n2)cc1,6.574
CSCCC(=O)NC(C)c1ccc2c(c1)OCCCO2 (stereo unspecified),48.73
CC(C)(CO)CCCNC(=O)N1CCSCC1,11.24
Cc1c2c(nc3ccccc13)CCNC2=O,-11.47
CCN1CCN(C(=O)Cc2ccccc2OC)CC1,14.37
Cc1nc2ncnn2c(N2CCNC(=O)CC2)c1C,-11.89
CSCCNC(=O)CN(c1ccc(C)cc1)S(C)(=O)=O,8.812

Once more, the final 5:

structure,Percent Effect
CC(C)(CO)CCCNC(=O)N1CCSCC1,11.24
Cc1c2c(nc3ccccc13)CCNC2=O,-11.47
CCN1CCN(C(=O)Cc2ccccc2OC)CC1,14.37
Cc1nc2ncnn2c(N2CCNC(=O)CC2)c1C,-11.89
CSCCNC(=O)CN(c1ccc(C)cc1)S(C)(=O)=O,8.812

Source: ChEMBL document CHEMBL3988442, “University of Dundee, Small-Polar-MMV Screening Library” (2021).